Assay results published in the supplement of paper PMC10735217.
Structures can show the parent of a compound that is named as a salt. The list shows a part of the results. Single values are uncertain here, since repeats match poorly.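 Human kidney-derived cells stably carry a construct in which eight TEAD-binding elements drive luciferase, measured by luminescence in a drug-repurposing library screen. A hit is any compound whose signal exceeds the plate mean by more than five robust Z scores.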

System: HEK293A TEAD-LUC reporter
Test: TEAD-luciferase reporter activity (YAP activation), robust Z score vs plate; higher = stronger YAP/TEAD activation
Details: 24 h

| Structure (SMILES) | TEAD-luciferase reporter activity (compound concentration: 200 nM) | TEAD-luciferase reporter activity (compound concentration: 2 uM) | TEAD-luciferase reporter activity (compound concentration: 10 uM) |
| --- | --- | --- | --- |
| N=C(N)N/N=C(\c1ccccc1)c1cc(Cl)ccc1N | inactive: -0.751 | inactive: -0.429 | inactive: 2.28 |
| N=C(N)NCCCC(N)C(=O)O (stereo unspecified) [argimesna] | inactive: -1.16 | inactive: -0.599 | inactive: -0.807 |
| CC[C@H](C)[C@@H]([C@@H](CC(=O)N1CCC[C@H]1[C@H](OC)[C@@H](C)C(=O)N[C@@H](Cc1ccccc1)c1nccs1)OC)N(C)C(=O)[C@@H](NC(=O)[C@@H](NC)C(C)C)C(C)C [Monomethylauristatin D] | – | active: 7.11 | – |
| CC[C@H](C)[C@@H]([C@@H](CC(=O)N1CCC[C@H]1[C@H](OC)[C@@H](C)C(=O)N[C@@H](Cc1ccccc1)c1nccs1)OC)N(C)C(=O)[C@@H](NC(=O)[C@@H](NC)C(C)C)C(C)C [Monomethylauristatin D (MMAD)] | inactive: 3.91 | – | inactive: 3.42 |
| CC(C)C[C@H](NC(=O)[C@H](CCc1ccccc1)NC(=O)CN1CCOCC1)C(=O)N[C@@H](Cc1ccccc1)C(=O)N[C@@H](CC(C)C)C(=O)[C@@]1(C)CO1 [carfilzomib] | inactive: 0.447 | inactive: -2.24 | inactive: 1.77 |
| CC1=NN(c2ccc(C)c(C)c2)C(=O)/C1=N/Nc1cccc(-c2cccc(-c3nnn[nH]3)c2)c1O | inactive: 0.961 | inactive: -1.64 | active: 6.85 |
| O=C(O)CCCc1ccc(C(CCCC(F)(F)C(F)(F)F)NS(=O)(=O)c2ccc(F)cc2)cc1 (single isomer, unassigned; (+)) | inactive: 4.91 | inactive: 1.3 | inactive: -0.665 |
| Cc1nc(-c2ccc(OCC(C)C)c(C#N)c2)sc1C(=O)O [febuxostat] | active: 5.83 | inactive: -1.88 | inactive: -0.243 |
| COc1ccc(Cc2c(O[C@@H]3O[C@H](CO)[C@@H](O)[C@H](O)[C@H]3O)nn(C(C)C)c2C)c(F)c1 | inactive: -2.03 | inactive: -0.427 | inactive: 0.669 |
| Nc1ccc(S(=O)(=O)Nc2nccs2)cc1 | inactive: -0.227 | inactive: -0.688 | inactive: -0.0864 |
| CCN(CC)CCOC(=O)c1cccnc1 | inactive: -1.63 | inactive: 1.32 | inactive: -0.505 |
| COc1cccc(-c2ccc(NC(=O)C3=C(C(=O)O)CCC3)c(F)c2)c1 [vidofludimus] | inactive: -0.616 | inactive: -1.51 | inactive: 3.28 |
| N/C(=N\N=C\c1ccc(Cl)cc1)N/N=C/c1ccc(Cl)cc1 [Robenidine hydrochloride] | inactive: -0.0806 | inactive: 0.363 | active: 7.54 |
| Cn1nnnc1SCC1=C(C(=O)[O-])N2C(=O)[C@@H](NC(=O)[C@H](OC=O)c3ccccc3)[C@H]2SC1 [Cefamandole Nafate] | – | inactive: 0.207 | – |
| CC(C)(NS(=O)(=O)c1ccc(Oc2ccc(F)cc2)cc1)C(=O)NO | inactive: -1.01 | inactive: -1.39 | inactive: 1.07 |
| CCCCOc1ccc(C(=O)OCCOCCN(CC)CC)cc1N | inactive: -0.00466 | inactive: -1.21 | inactive: 2.75 |
| O=c1[nH]c(=O)c2[nH]c(=O)[nH]c2[nH]1 [Uric acid] | inactive: -0.775 | inactive: -0.792 | inactive: 0.221 |

Whole records from above. Values in the order: TEAD-luciferase reporter activity (compound concentration: 200 nM) | TEAD-luciferase reporter activity (compound concentration: 2 uM) | TEAD-luciferase reporter activity (compound concentration: 10 uM)
CC[C@H](C)[C@@H]([C@@H](CC(=O)N1CCC[C@H]1[C@H](OC)[C@@H](C)C(=O)N[C@@H](Cc1ccccc1)c1nccs1)OC)N(C)C(=O)[C@@H](NC(=O)[C@@H](NC)C(C)C)C(C)C [Monomethylauristatin D (MMAD)] is listed with inactive: 3.91 | – | inactive: 3.42
N=C(N)NCCCC(N)C(=O)O (stereo unspecified) [argimesna] is listed with inactive: -1.16 | inactive: -0.599 | inactive: -0.807

Continuation.

| Structure (SMILES) | TEAD-luciferase reporter activity (compound concentration: 200 nM) | TEAD-luciferase reporter activity (compound concentration: 2 uM) | TEAD-luciferase reporter activity (compound concentration: 10 uM) |
| --- | --- | --- | --- |
| CC(=O)N(O)[C@@H]1c2cc(C#N)ccc2OC(C)(C)[C@H]1O | inactive: -0.401 | inactive: -0.294 | inactive: -1.74 |
| CC(C)C[C@H](NC(=O)[C@H](Cc1ccccc1)NC(=O)c1cnccn1)B(O)O [Bortezomib] | inactive: -0.14 | inactive: -0.102 | inactive: 1.17 |
| COC(=O)Nc1nc2cc(C(=O)c3ccccc3)ccc2[nH]1 [mebendazole chewable tablet] | – | inactive: 0.231 | – |
| COC(=O)Nc1nc2cc(C(=O)c3ccccc3)ccc2[nH]1 [Mebendazole] | inactive: 4.01 | – | inactive: 1.91 |
| CO[C@H]1CC[C@H](N2C(=O)CNc3ncc(-c4ccc(C(C)(C)O)nc4)nc32)CC1 | inactive: 3.9 | inactive: -1.94 | inactive: -1.54 |
| CCc1cc(C(N)=S)ccn1 [Ethionamide] | inactive: 0.169 | inactive: -0.588 | inactive: 2.21 |
| CC(C)C[C@H](NC(=O)[C@H](Cc1ccccc1)C[C@@H](O)[C@H](Cc1ccccc1)NC(=O)OC(C)(C)C)C(=O)N[C@@H](Cc1ccccc1)C(N)=O | inactive: -1.16 | inactive: 1.85 | inactive: 0.418 |
| NC(CCC(=O)NCCS(=O)(=O)O)C(=O)O (stereo unspecified) | inactive: -1.19 | inactive: -1.51 | inactive: -1.11 |
| CS(=O)(=O)c1ccc(C(=O)Nc2ccc(Cl)c(-c3ccccn3)c2)c(Cl)c1 [Vismodegib] | inactive: -3.96 | inactive: -0.472 | inactive: -0.528 |
| CN(C)/C(N)=N\c1ccccc1N1CCOCC1 | inactive: -2.76 | inactive: -0.619 | inactive: -0.134 |
| CCCc1ccc(NS(=O)(=O)Cc2ccccc2)c(=O)n1CC(=O)NCc1ccc(N)nc1C | inactive: 1.49 | inactive: 1.33 | inactive: -1.03 |
| CS(=O)(=O)Nc1ccc2c(c1)C(O)CC1(CCN(C3CCc4cc(C#N)ccc4C3)CC1)O2 (stereo unspecified) | inactive: -0.944 | inactive: 0.0472 | inactive: -0.516 |
| CC(C)C(=O)c1c(C(C)C)nn2ccccc12 [ibudilast] | inactive: -0.0899 | inactive: 1.5 | inactive: -1.8 |
| CC(=O)OCC(CCn1cnc2cnc(N)nc21)COC(C)=O | inactive: -1.39 | – | inactive: 0.295 |
| CC(=O)OCC(CCn1cnc2cnc(N)nc21)COC(C)=O [famciclovir] | – | inactive: 0.411 | – |
| CC(OC(=O)NCC1(CC(=O)O)CCCCC1)OC(=O)C(C)C (stereo unspecified) [gabapentin enacarbil] | inactive: -2.16 | inactive: 0.352 | inactive: -1.14 |
| CCOC(=O)C(COC(=O)Cc1ccc(NC(=O)c2ccccc2-c2ccc(C(F)(F)F)cc2)c(C(=O)N(C)C)c1)(C(=O)OCC)c1ccccc1 [granotapide] | inactive: 3.76 | inactive: 0.718 | inactive: -0.921 |
